Reference: PubChem BioAssay AID652163 (Broad Institute, 2013)
In all, about 360,000 compounds went through this assay and about 500 (0.14%) were called active. This list was built around the results that the source calls inconclusive (neither active nor inactive); the mix of calls is not that of the screen.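 The calls were made as follows: active = mean inhibition of at least 70% across replicates, with every replicate also reaching that level; inconclusive = mean inhibition reaches 70% but some replicates fall short; inactive = mean inhibition below 70%.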

The chains behind the UniProt entries cited, without tags or fusion partners.
UniProt P26447, whole entry, looked up: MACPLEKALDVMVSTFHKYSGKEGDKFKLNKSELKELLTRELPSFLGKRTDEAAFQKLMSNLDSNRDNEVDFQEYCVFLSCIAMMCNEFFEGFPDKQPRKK

molecular target: Protein S100-A4 (Homo sapiens) (UniProt P26447); experiment: inhibitors of S100A4-myosin IIA peptide binding, primary screen, biochemical, fluorescence polarization, TAMRA-MyoIIA peptide (AID 652163); settings: at 10.7 µM, active compounds read high
Procedure, shortened: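 Material: S100A4 monomer (human). Medium: Calcium-containing HEPES buffer, pH 7.2. Probe or stimulus: labelled myosin peptide probe, 5 nM. Compound dosing: one concentration per compound. Timing: polarization read 5 min after assay mix addition, stable 5–60 min. Benchmarks: DMSO as neutral control, TFP as positive control.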

Structure (SMILES)	inhibition
C[C@H](CO)N1C[C@H](C)[C@@H](CN(C)S(=O)(=O)c2cccs2)Oc2ccc(NC(=O)Cc3cn(C)c4ccccc34)cc2C1=O	inconclusive: 74.8%
CNC[C@@H]1OCCCC[C@H](C)Oc2ccc(NS(C)(=O)=O)cc2C(=O)N([C@@H](C)CO)C[C@@H]1C	active: 88.7%
COCC#Cc1ccc2c(c1)O[C@@H](CN(C)C(=O)Nc1ccc(OC)cc1)[C@@H](C)CN([C@@H](C)CO)S2(=O)=O	inconclusive: 74.6%
CCCC(=O)Nc1ccc2c(c1)OC[C@@H](C)N(Cc1ccncc1)C[C@H](C)[C@H](OC)CN(C)C2=O	active: 121%
CO[C@H]1CN(C)C(=O)c2ccc(NC(=O)Nc3ccccc3)cc2OC[C@H](C)N(C(=O)Nc2c(C)noc2C)C[C@H]1C	inactive: -3.32%
C[C@@H]1CN([C@@H](C)CO)C(=O)c2cc(NC(=O)Nc3ccccc3)ccc2O[C@@H](C)CCCCO[C@@H]1CN(C)Cc1ccc2c(c1)OCO2	inconclusive: 86.1%
C[C@@H]1CN([C@H](C)CO)C(=O)Cc2cc(NC(=O)C3CCCCC3)ccc2O[C@H]1CN(C)Cc1ccc2c(c1)OCO2	inactive: -5.64%
C[C@H]1CCCCO[C@H](CN(C)Cc2ccc(C(F)(F)F)cc2)[C@@H](C)CN([C@@H](C)CO)C(=O)c2cc(NC(=O)Nc3ccc4c(c3)OCO4)ccc2O1	active: 153%
COc1ccc(C(C)(O)c2nc(-c3cccs3)cs2)cc1 (centres undefined)	active: 182%
CCCC#Cc1ccc([C@H]2[C@H](CO)N3CCCCN(CC4CCOCC4)C[C@@H]23)cc1	inconclusive: 72%
CCOc1ccc(NC(=O)CCC(=O)Oc2ccc(C)cc2)cc1	inconclusive: 95.3%
COc1cc(/C=C/c2ccc3cccc(O)c3n2)cc(Br)c1OC	inconclusive: 83%
Cc1noc(C)c1S(=O)(=O)N(C)C[C@H]1OCCCC[C@H](C)Oc2ccc(NS(=O)(=O)c3ccccc3)cc2C(=O)N([C@H](C)CO)C[C@@H]1C	active: 106%
CC(=O)N[C@@H]1CC[C@H](CCNC(=O)C2CC2)O[C@H]1CO	inactive: 1%
CCOc1ccccc1NC(=O)C1CCCN1S(=O)(=O)c1ccccc1C(F)(F)F (centres undefined)	inactive: -0.134%
Cc1cc2ccccc2n1CCNC(=O)c1ccc(S(=O)(=O)N2CCCCC2)cc1	active: 124%
CC(=O)c1ccc(NC(=O)c2ccc(NC(=O)CCS(=O)(=O)c3cccs3)cc2)cc1	inactive: 9.73%
OC1CCCCC1	inactive: -1.44%
CCCC(=O)Nc1ccc2c(c1)OC[C@H](C)N(C(=O)CC)C[C@@H](C)[C@@H](OC)CN(C)C2=O	inconclusive: 70.2%
Cc1cc(C(=O)Nc2cccc3c2O[C@@H](CN(C)Cc2ccc4c(c2)OCO4)[C@@H](C)CN([C@H](C)CO)C3=O)n(C)n1	inactive: 2.03%
Cn1cnc(CCNC(=O)C[C@H]2CC[C@H]3[C@@H](COC[C@@H](O)CN3C(=O)C3CC3)O2)c1	active: 85.3%
COc1ccc(S(=O)(=O)Nc2ccc3c(c2)C(=O)N([C@@H](C)CO)C[C@H](C)[C@H](CN(C)S(=O)(=O)c2cn(C)cn2)OCCCC[C@@H](C)O3)cc1	inconclusive: 72.7%

Structure (SMILES)	inhibition
C[C@@H](O)C#Cc1ccc2c(c1)O[C@H](CN(C)C(=O)C1CC1)[C@@H](C)CN([C@@H](C)CO)S2(=O)=O	inconclusive: 85.4%
CC=Cc1ccc2n(c1=O)C[C@H]1[C@H](CO)[C@@H](C(=O)N[C@@H](C)c3ccccc3)[C@@H]2N1Cc1ccncc1 (mixture of isomers)	inconclusive: 85.1%
C[C@@H]1CCCCO[C@@H](CN(C)S(=O)(=O)c2cn(C)cn2)[C@@H](C)CN([C@H](C)CO)C(=O)c2cc(NS(=O)(=O)c3ccc(Cl)cc3)ccc2O1	active: 103%
c1cnc2c(c1)ncc1cscc12	inactive: -6.76%
CC[C@@H]1C=C(C(=O)O)[C@H](c2ccc3c(c2)OCO3)N1S(=O)(=O)c1ccc(C)cc1	inconclusive: 130%
COc1cc(/C=C(\C#N)c2nc3ccccc3s2)cc([N+](=O)[O-])c1O	inactive: 2.84%
O=C(C[n+]1ccccc1)N/N=C/c1ccco1	inactive: 9.46%
Cc1cccc(S(=O)(=O)N2CC[C@@H]3[C@H](CO)Nc4ccc(C#Cc5ccc(F)cc5)cc4[C@@H]32)c1	active: 97.4%
O=C(CSc1nnnn1-c1cccc2c1CCCC2)N1CCOCC1	inconclusive: 93.7%
O=[N+]([O-])c1cc(-c2ccc(/C=N/n3cnnc3)o2)ccc1Cl	inconclusive: 90.1%
COc1cccc2sc3cc(NCc4ccc(C)o4)ccc3c(=O)c12	inconclusive: 74.6%
COc1cccc(-c2ccc3c(c2)[C@H]2[C@H](CCN2C(=O)c2ccc4c(c2)OCO4)[C@H](CO)N3C)c1	active: 98%
CCOc1ccccc1N	inconclusive: 78.6%
O=C(C1CCCC1)N1CC[C@@H]2[C@@H](CO)Nc3ccc(C#Cc4ccc(F)cc4)cc3[C@@H]21	inactive: -22.6%
CC(=O)N(C)C[C@@H]1Oc2cc(-c3ccc(C)cc3)ccc2S(=O)(=O)N([C@H](C)CO)C[C@H]1C	inconclusive: 94.3%
CCCCn1c(N)c(N(CCOC)C(=O)C2CCN(S(=O)(=O)c3ccc(Cl)cc3)CC2)c(=O)[nH]c1=O	inconclusive: 75.6%
O=C(C[C@@H]1CC[C@@H](NC(=O)c2ccccc2)[C@H](CO)O1)NCc1ccc(Oc2ccccc2)cc1	inconclusive: 74.8%
Cc1noc(C)c1NC(=O)Nc1ccc2c(c1)C(=O)N([C@@H](C)CO)C[C@@H](C)[C@@H](CN(C)C(=O)c1ccccc1)OCCCC[C@@H](C)O2	inconclusive: 82.4%
COc1ccc(OC)c(/C=C/C(=O)OCC(=O)N2CCCCC2)c1	inactive: 4.75%
C[C@@H]1CN([C@H](C)CO)S(=O)(=O)c2ccc(-c3cccnc3)cc2O[C@@H]1CN(C)C	inactive: -31.7%
COCC(=O)N1[C@H](CO)[C@@H](c2ccccc2)C12CN(C(=O)Cc1ccccn1)C2	active: 96.8%
COc1ccc(C2/C=C\CN(S(=O)(=O)c3cccc4cccnc34)CC(=O)N2Cc2ccc(F)cc2)cc1 (centres undefined)	active: 91.4%

Retrieved by compound from the list above (three):
Structure (SMILES)	inhibition
O=[N+]([O-])c1cc(-c2ccc(/C=N/n3cnnc3)o2)ccc1Cl	inconclusive: 90.1%
CC(=O)N[C@@H]1CC[C@H](CCNC(=O)C2CC2)O[C@H]1CO	inactive: 1%
CC[C@@H]1C=C(C(=O)O)[C@H](c2ccc3c(c2)OCO3)N1S(=O)(=O)c1ccc(C)cc1	inconclusive: 130%
